From paper PMC4284802, “The tumour suppressor DLC2 ensures mitotic fidelity by coordinating spindle positioning and cell–cell adhesion” (Nature Communications, 2014) come the findings set out here.

Test [1] has as its target T1, DLC2 SAM domain together with the serine-rich domain (residues 1-600) fused to GST (human) (UniProt Q9Y3M8).
T1 sequence: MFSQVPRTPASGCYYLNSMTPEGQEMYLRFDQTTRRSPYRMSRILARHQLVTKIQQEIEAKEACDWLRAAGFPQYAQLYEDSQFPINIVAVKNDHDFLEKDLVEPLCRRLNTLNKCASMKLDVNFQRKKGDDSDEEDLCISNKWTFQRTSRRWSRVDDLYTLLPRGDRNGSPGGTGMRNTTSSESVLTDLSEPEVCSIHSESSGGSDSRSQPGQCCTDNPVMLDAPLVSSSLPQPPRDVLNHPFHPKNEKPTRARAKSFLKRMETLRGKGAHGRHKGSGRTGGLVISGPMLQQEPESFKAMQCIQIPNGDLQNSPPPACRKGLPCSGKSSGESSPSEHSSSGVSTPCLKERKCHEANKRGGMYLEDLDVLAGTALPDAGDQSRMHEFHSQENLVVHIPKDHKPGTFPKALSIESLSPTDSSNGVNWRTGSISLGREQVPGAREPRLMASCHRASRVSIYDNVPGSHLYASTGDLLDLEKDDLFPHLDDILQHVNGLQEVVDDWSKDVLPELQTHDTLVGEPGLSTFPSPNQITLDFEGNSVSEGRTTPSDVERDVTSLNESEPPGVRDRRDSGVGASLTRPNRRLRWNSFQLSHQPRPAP
As to the kind of experiment: pull-down; GST-fusion proteins of DLC2 domains on glutathione-agarose beads incubated 2 h with HCE cell extracts; immunoblot for Kif1B, p120 catenin and GST; only the target purified.

The target in test [2] is T2, DLC2 SAM domain (residues 1-130) fused to GST (human) (UniProt Q9Y3M8).
T2 sequence: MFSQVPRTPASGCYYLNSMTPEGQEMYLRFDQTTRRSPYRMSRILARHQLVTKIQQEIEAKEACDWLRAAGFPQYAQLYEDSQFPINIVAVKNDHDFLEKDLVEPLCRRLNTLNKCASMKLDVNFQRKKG
Described as above.

In test [3] the target is T3, DLC2 (Deleted in Liver Cancer 2; STARD13) (human (endogenous in HCE)) (UniProt Q9Y3M8).
T3 sequence: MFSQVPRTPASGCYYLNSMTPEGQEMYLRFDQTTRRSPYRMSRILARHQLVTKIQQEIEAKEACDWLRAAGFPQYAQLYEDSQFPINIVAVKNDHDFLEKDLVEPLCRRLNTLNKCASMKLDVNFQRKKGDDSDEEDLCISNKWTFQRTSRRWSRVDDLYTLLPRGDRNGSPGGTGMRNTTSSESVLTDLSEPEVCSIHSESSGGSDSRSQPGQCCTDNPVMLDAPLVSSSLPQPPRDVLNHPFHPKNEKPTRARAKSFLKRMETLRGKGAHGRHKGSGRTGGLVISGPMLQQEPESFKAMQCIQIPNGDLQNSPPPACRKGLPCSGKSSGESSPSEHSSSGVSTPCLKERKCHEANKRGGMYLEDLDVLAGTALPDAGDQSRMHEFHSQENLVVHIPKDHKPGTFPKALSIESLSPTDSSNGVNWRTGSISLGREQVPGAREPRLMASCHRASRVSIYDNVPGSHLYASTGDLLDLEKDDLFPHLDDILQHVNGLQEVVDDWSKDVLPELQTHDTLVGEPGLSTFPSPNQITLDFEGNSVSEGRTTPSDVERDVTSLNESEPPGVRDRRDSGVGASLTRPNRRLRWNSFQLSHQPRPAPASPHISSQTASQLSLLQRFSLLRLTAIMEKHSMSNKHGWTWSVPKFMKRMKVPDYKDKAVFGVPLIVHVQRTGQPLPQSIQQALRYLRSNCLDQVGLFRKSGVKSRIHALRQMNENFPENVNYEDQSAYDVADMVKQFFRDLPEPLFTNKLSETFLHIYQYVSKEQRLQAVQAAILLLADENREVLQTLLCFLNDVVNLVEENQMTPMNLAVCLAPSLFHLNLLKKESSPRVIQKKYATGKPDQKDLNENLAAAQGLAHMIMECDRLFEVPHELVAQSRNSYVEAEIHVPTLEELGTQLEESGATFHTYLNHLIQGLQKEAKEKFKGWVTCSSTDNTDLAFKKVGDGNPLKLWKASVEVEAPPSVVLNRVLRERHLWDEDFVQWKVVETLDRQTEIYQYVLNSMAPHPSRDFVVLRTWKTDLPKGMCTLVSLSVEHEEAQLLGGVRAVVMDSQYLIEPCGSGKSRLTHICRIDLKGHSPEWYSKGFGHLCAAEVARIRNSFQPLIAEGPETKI
As to the kind of experiment: co-IP; HCE cell extracts (0.5% Triton-X-100 in PBS, 4 °C, protease and phosphatase inhibitors); goat anti-DLC2 or rabbit anti-Kif1B antibodies conjugated to Protein G-Sepharose, control IgG of the same species; 2 h at 4 °C; immunoblot.

Test [4] has as its target Kif1B (human (endogenous in HCE)) (UniProt O60333). The description is as above.
Test [5] deals with T2, DLC2 SAM domain (residues 1-130) fused to GST (human). Briefly: pull-down; purified GST-SAM domain on glutathione-agarose beads incubated 2 h with recombinant His-tagged Kif1B fusion proteins; immunoblot with anti-GST and anti-His; both purified.

No constants are given. Whether binding was seen depends on the method and setting. For part of these data: Binding seen in cells or lysates may run through a third protein. Some results given as binding are weak or reduced against the parent protein; the word gives no strength. For part of these data: Sequences can lack the tags named with a protein.

As to Kif1B (from UniProt O60333 1-1816), the binding result in test [1], in test [2] and in test [3] was “binds” throughout.

B1: DLC2 (Deleted in Liver Cancer 2; STARD13) (protein, UniProt Q9Y3M8 1-1113)
chain: T3 sequence
For the molecule B1, in test [4], the binding entry was “binds”.

B2: p120 catenin (protein, UniProt O60716 1-968)
chain: MDDSEVESTASILASVKEQEAQFEKLTRALEEERRHVSAQLERVRVSPQDANPLMANGTLTRRHQNGRFVGDADLERQKFSDLKLNGPQDHSHLLYSTIPRMQEPGQIVETYTEEDPEGAMSVVSVETSDDGTTRRTETTVKKVVKTVTTRTVQPVAMGPDGLPVDASSVSNNYIQTLGRDFRKNGNGGPGPYVGQAGTATLPRNFHYPPDGYSRHYEDGYPGGSDNYGSLSRVTRIEERYRPSMEGYRAPSRQDVYGPQPQVRVGGSSVDLHRFHPEPYGLEDDQRSMGYDDLDYGMMSDYGTARRTGTPSDPRRRLRSYEDMIGEEVPSDQYYWAPLAQHERGSLASLDSLRKGGPPPPNWRQPELPEVIAMLGFRLDAVKSNAAAYLQHLCYRNDKVKTDVRKLKGIPVLVGLLDHPKKEVHLGACGALKNISFGRDQDNKIAIKNCDGVPALVRLLRKARDMDLTEVITGTLWNLSSHDSIKMEIVDHALHALTDEVIIPHSGWEREPNEDCKPRHIEWESVLTNTAGCLRNVSSERSEARRKLRECDGLVDALIFIVQAEIGQKDSDSKLVENCVCLLRNLSYQVHREIPQAERYQEAAPNVANNTGPHAASCFGAKKGKDEWFSRGKKPIEDPANDTVDFPKRTSPARGYELLFQPEVVRIYISLLKESKTPAILEASAGAIQNLCAGRWTYGRYIRSALRQEKALSAIADLLTNEHERVVKAASGALRNLAVDARNKELIGKHAIPNLVKNLPGGQQNSSWNFSEDTVISILNTINEVIAENLEAAKKLRETQGIEKLVLINKSGNRSEKEVRAAALVLQTIWGYKELRKPLEKEGWKKSDFQVNLNNASRSQSSHSYDDSTLPLIDRNQKSDKKPDREEIQMSNMGSNTKSLDNNYSTPNERGDHNRTLDRSGDLGDMEPLKGTTPLMQDEGQESLEEELDVLVLDDEGGQVSYPSMQKI
On to B2, for which the binding entry in test [1], in test [2], in test [3] and in test [4] was “binds” each time.

B3: His-tagged recombinant protein containing the Kif1B kinesin motor domain (residues 1-366) (domain or fragment, UniProt O60333-2 1-366)
chain: MSGASVKVAVRVRPFNSRETSKESKCIIQMQGNSTSIINPKNPKEAPKSFSFDYSYWSHTSPEDPCFASQNRVYNDIGKEMLLHAFEGYNVCIFAYGQTGAGKSYTMMGKQEESQAGIIPQLCEELFEKINDNCNEEMSYSVEVSYMEIYCERVRDLLNPKNKGNLRVREHPLLGPYVEDLSKLAVTSYTDIADLMDAGNKARTVAATNMNETSSRSHAVFTIVFTQKKHDNETNLSTEKVSKISLVDLAGSERADSTGAKGTRLKEGANINKSLTTLGKVISALAEVSKKKKKTDFIPYRDSVLTWLLRENLGGNSRTAMVAALSPADINYDETLSTLRYADRAKQIKCNAVINEDPNAKLVREL
As to B3, the binding result in test [5] is on record as “no binding”.
